The source calls these results inconclusive, neither active nor inactive. Unless noted, calls follow the shape of the dose curve; as a rule, active = well fitted curve in the direction sought with a large enough effect in the repeat runs; inconclusive = weak or mixed curves; inactive = no such curve, though single readings can be large; an effect the other way counts as inactive or inconclusive.
Tests used:
[1] = biological target: Bile acid receptor (Homo sapiens) (UniProt Q96RI1); experiment: qHTS assay to identify small molecule agonists of the farnesoid-X-receptor (FXR) signaling pathway (AID 743220; active = well fitted activation curve with a large enough effect in the signal ratio in the repeat runs, not every such curve was filed as active; inconclusive = weak or mixed curves, or effect the other way; the % refers to the signal ratio; also: % is scaled to controls: 0 for no effect and ±100 for the full control effect); conditions: HEK293T FXR-UAS-bla, beta-lactamase FRET ratio, 16 h; activation: at 62.6 µM (top of the series)
[2] = qHTS assay to identify small molecule agonists of the endoplasmic reticulum stress response signaling pathway - cell viability counter screen (AID 1159517; calls by dose curve; also: potency is read from the fitted curve at half-maximal effect; nearly all actives have a fitted effect of over 50% in size); conditions: ESRE-bla HeLa viability, CellTiter-Glo luminescence, 5 h
How it was run: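 HeLa cells carrying an ESRE-driven beta-lactamase reporter receive compound for 5 hr at 37 C. Cell viability is then gauged with CellTiter-Glo by luminescence, 30 min at room temperature.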

Protein sequences, listed by entry. Tags and fused reporters are not part of them.
UniProt Q96RI1, whole entry: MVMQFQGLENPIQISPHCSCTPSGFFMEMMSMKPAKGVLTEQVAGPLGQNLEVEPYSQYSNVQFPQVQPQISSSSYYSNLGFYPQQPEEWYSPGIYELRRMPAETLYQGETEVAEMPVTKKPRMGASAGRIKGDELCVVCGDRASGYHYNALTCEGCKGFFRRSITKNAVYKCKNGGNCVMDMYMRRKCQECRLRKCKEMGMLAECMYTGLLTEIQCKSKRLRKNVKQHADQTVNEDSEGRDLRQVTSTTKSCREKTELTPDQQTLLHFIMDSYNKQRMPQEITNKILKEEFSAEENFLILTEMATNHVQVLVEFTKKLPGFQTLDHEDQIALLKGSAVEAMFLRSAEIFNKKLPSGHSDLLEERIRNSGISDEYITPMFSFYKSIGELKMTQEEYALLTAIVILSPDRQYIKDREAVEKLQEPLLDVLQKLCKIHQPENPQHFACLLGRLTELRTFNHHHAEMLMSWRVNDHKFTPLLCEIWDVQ
UniProt P11712, whole entry: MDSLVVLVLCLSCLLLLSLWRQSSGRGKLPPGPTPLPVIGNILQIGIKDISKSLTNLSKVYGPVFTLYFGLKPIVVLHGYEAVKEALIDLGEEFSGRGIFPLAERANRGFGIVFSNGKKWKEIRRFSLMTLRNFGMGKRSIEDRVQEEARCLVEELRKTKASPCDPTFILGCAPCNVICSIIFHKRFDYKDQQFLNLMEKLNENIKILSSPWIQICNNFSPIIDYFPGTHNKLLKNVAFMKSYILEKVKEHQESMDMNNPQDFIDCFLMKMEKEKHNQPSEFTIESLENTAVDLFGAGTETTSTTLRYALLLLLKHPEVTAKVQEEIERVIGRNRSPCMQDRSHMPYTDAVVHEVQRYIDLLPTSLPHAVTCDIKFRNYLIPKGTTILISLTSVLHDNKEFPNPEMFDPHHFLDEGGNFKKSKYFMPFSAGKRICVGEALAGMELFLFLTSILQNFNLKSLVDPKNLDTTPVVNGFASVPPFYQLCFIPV
UniProt P05177, whole entry: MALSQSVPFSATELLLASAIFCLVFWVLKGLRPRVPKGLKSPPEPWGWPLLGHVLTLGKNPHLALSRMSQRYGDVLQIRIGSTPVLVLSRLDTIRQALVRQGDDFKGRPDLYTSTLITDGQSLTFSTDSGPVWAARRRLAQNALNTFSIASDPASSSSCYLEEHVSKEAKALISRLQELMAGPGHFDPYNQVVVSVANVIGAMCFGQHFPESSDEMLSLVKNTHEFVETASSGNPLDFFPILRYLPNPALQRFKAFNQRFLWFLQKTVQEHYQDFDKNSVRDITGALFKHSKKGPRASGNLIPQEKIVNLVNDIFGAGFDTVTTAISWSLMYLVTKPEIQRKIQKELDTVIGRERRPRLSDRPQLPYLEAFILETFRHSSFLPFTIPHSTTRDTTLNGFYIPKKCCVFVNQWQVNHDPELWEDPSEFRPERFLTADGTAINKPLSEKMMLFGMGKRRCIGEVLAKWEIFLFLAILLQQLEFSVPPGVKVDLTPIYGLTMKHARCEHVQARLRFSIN
UniProt P04150, whole entry: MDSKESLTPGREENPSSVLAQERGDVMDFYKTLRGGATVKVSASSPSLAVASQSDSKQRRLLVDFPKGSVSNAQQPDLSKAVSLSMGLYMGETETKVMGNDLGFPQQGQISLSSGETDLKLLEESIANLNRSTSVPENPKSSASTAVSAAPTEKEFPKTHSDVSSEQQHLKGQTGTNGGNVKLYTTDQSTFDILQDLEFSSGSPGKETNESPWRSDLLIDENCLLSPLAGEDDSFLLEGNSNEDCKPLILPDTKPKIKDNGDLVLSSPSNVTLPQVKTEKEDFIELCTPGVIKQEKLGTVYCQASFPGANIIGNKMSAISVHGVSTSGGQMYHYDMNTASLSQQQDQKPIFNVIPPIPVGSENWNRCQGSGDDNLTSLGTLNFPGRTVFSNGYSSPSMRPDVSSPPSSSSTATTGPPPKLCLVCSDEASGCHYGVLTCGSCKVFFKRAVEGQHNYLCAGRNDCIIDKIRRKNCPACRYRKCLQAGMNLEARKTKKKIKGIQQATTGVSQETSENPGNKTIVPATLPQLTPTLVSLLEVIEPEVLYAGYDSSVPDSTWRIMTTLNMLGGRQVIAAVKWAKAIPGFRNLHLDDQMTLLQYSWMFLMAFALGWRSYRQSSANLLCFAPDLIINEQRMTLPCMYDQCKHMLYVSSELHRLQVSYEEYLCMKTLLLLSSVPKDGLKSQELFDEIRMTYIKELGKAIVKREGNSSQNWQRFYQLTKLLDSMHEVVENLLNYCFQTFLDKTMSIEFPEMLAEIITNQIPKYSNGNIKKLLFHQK
UniProt P19793, whole entry: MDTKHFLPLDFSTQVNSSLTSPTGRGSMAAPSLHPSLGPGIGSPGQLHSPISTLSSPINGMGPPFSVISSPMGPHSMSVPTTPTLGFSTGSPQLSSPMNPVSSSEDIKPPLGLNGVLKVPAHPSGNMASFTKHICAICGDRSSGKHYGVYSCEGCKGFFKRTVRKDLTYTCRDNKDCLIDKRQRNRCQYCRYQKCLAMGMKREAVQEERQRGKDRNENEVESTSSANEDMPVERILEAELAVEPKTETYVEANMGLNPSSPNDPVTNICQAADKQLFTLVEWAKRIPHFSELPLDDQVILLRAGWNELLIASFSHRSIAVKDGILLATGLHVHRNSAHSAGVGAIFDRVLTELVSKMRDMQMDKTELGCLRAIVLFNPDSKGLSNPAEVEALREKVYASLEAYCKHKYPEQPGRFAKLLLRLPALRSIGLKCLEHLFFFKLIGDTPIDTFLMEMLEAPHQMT

[3] = biological target: Nuclear receptor ROR-gamma (Homo sapiens) (UniProt P51449); experiment: qHTS assay to identify small molecule antagonists of the retinoid-related orphan receptor gamma (ROR-gamma) signaling pathway (AID 1159521; also: potency is read from the fitted curve at half-maximal effect; nearly all actives have a fitted effect of over 50% in size); conditions: Tet-on RORgamma CHO cells, RORE-luciferase, 16 h
[4] = qHTS assay to identify small molecule antagonists of the retinoid acid receptor (RAR) signaling pathway - cell viability counter screen (AID 1159551); conditions: C3RL4 cells viability, ATP luminescence (CellTiter-Glo), 6 h; also: potency is read from the fitted curve at half-maximal effect; nearly all actives have a fitted effect of over 35% in size
How it was run: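 Retinol-stimulated (1 uM final) C3RL4 cells, compound 6 h, 37 C; readout CellTiter-Glo luminescence (ATP) after 30 min RT incubation.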

[5] = qHTS assay to identify small molecule agonists of H2AX (AID 1224845; active = well fitted activation curve with a large enough effect in the signal ratio in the repeat runs, not every such curve was filed as active; inconclusive = weak or mixed curves; the % refers to the signal ratio; also: potency is read from the fitted curve at half-maximal effect); conditions: CHO-K1 phospho-H2AX Ser139 HTRF, 3 h; activation (H2AX phosphorylation): at 154 µM (top of the series)
How it was run: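 Phospho-H2AX Ser139 measured by HTRF (ex 320 nm; em 665 and 620 nm) after 24 hr antibody incubation. Compounds, 15 concentrations, 0.76% DMSO, were applied to CHO-K1 cells for 3hr at 37C before lysis.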

[6] = qHTS assay to identify small molecule agonists of the hypoxia (HIF-1) signaling pathway (AID 1224846; active = well fitted activation curve with a large enough effect in the signal ratio in the repeat runs, not every such curve was filed as active; inconclusive = weak or mixed curves; the % refers to the signal ratio; also: potency is read from the fitted curve at half-maximal effect); conditions: HRE-bla ME-180 cells, beta-lactamase ratio, 17 h
How it was run: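 A low-serum medium (0.5% dialyzed FBS) holding 2,000 HRE-bla ME-180 cells per well is preincubated for 5 hrs, dosed with compounds by pintool, and kept a further 17 hrs at 37C, 5% CO2 before CCF4-AM FRET detection of beta-lactamase.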

[7] = qHTS assay to identify small molecule agonists of the androgen receptor (AR) signaling pathway in the presence of an antagonist - cell viability counter screen (AID 1259379); conditions: MDA-kb2 viability, CellTiter-Fluor, 16 h; also: potency is read from the fitted curve at half-maximal effect; nearly all actives have a fitted effect of over 25% in size
How it was run: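 Seed MDA-kb2 at 3,000 cells/well; incubate 5 hr, 37C, 0% CO2. Add nilutamide to 3.0uM final, then pin compounds at 15 concentrations. Incubate 16 hr. Add CellTiter-Fluor at 15 hr, read fluorescence after 1 hr.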

[8] = biological target: Cytochrome P450 2C9 (Homo sapiens) (UniProt P11712); experiment: Cytochrome P450 Family 2 Subfamily C Member 9 (CYP2C9) small molecule antagonists: luciferase reporter qHTS assay (AID 1671198); conditions: P450-Glo CYP2C9 enzyme assay, luciferin luminescence; also: potency is read from the fitted curve at half-maximal effect; nearly all actives have a fitted effect of over 50% in size
How it was run: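 Enzyme-substrate mix preincubated with compound 10 min at room temperature; reaction started with NADPH regeneration solution, 1 h 37C. Luminescent luciferin product read after 20 min detection reagent.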

[9] = biological target: Cytochrome P450 1A2 (Homo sapiens) (UniProt P05177); experiment: Cytochrome P450 Family 1 Subfamily A Member 2 (CYP1A2) small molecule antagonists: luciferase reporter qHTS assay (AID 1671199); conditions: P450-Glo CYP1A2 enzyme, luciferin luminescence, 1 h; also: potency is read from the fitted curve at half-maximal effect; nearly all actives have a fitted effect of over 50% in size
[10] = qHTS assay for small molecule disruptors of the mitochondrial membrane potential (AID 720635); conditions: HepG2 mitochondrial membrane potential, Mito-MPS dye ratio; ratio activity, negative = MMP loss: at 83.2 µM (top of the series) unless noted; also: % is scaled to controls: 0 for no effect and ±100 for the full control effect
How it was run: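 Mitochondrial membrane potential tracked with Mito-MPS dye, red aggregates (ex 540/em 590 nm) against green monomers (ex 490/em 535 nm). Compound treatment 1 hr at 37C, dye 30 min in HepG2.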

[11] = biological target: Glucocorticoid receptor (Homo sapiens) (UniProt P04150); experiment: qHTS assay to identify small molecule antagonists of the glucocorticoid receptor (GR) signaling pathway (AID 720692; active = well fitted inhibition curve with a large enough effect in the signal ratio in the repeat runs, not every such curve was filed as active; inconclusive = weak or mixed curves, or effect the other way; inactive = no such curve, though single readings can be large or run the other way; the % refers to the signal ratio; also: % is scaled to controls: 0 for no effect and ±100 for the full control effect); conditions: GR-bla HeLa, beta-lactamase FRET ratio, dexamethasone-stimulated, 18 h; at 78.9 µM (top of the series)
[12] = qHTS assay for identifying genotoxic compounds that show differential cytotoxicity against isogenic chicken DT40 cell lines with known DNA damage response pathways - Rev3 mutant cell line (AID 743014); conditions: chicken DT40 Rev3-/- viability, CellTiter-Glo, 40 h; also: potency is read from the fitted curve at half-maximal effect; nearly all actives have a fitted effect of over 55% in size
[13] = biological target: Retinoic acid receptor RXR-alpha (Homo sapiens) (UniProt P19793); experiment: qHTS assay to identify small molecule agonists of the RXR signaling pathway (AID 1159527; calls by dose curve; also: potency is read from the fitted curve at half-maximal effect; nearly all actives have a fitted effect of over 35% in size); conditions: HEK293T RXRa-UAS-bla, beta-lactamase ratio, 16 h; activation: at 76.8 µM (top of the series) unless noted
How it was run: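 Compounds in DMSO were added to RXR-alpha-UAS-bla HEK 293T cells kept in 2% charcoal-stripped serum, and incubated 16 hr at 37 C with 5% CO2. Reporter signal came from a 2 hr B/G FRET substrate step.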

[14] = qHTS assay to identify small molecule antagonists of the estrogen related receptor signaling pathway with the pleiotropic PPARgamma coactivator (PGC) from Tox21 10K library - cell viability counter screen (AID 1224840; active = well fitted cell-killing curve with a large enough effect in the repeat runs, not every such curve was filed as active; inconclusive = weak or mixed curves, or effect the other way; inactive = no such curve, though single readings can be large or run the other way; also: potency is read from the fitted curve at half-maximal effect; nearly all actives have a fitted effect of over 40% in size); conditions: PGC/ERR reporter cells viability, CellTiter-Fluor, 17.5 h
How it was run: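 Following seeding of 2,000 PGC/ERR cells/well and 6 hours' incubation, test compounds were delivered in DMSO. The plates then sat 17.5 hours at 37 C before a fluorogenic live-cell protease reagent (CellTiter-Fluor) was read after 30 min.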

C/C1=C2N=C(/C=C3N=C(/C(C)=C4\[N-][C@@](C)([C@@H]5N=C1[C@](C)(CCC(=O)NC[C@@H](C)OP(=O)([O-])O[C@H]1[C@@H](O)[C@@H](n6cnc7cc(C)c(C)cc76)O[C@@H]1CO)[C@H]5CC(N)=O)[C@@](C)(CC(N)=O)[C@@H]4CCC(N)=O)[C@@](C)(CC(N)=O)[C@@H]\3CCC(N)=O)C(C)(C)[C@@H]/2CCC(N)=O.[C-]#N.[Co+3]
inconclusive: activation [1] -5.25% | Potency [2] 0.0952 µM | Potency [3] 0.106 µM | Potency [4] 29.8 µM | Potency [5] 61.9 µM | Potency [6] 1.69 µM | Potency [7] 29.8 µM | Potency [8] 15.5 µM | Potency [9] 24.5 µM

N=C(N)N[N+](=O)[O-]
inconclusive: ratio activity, negative = MMP loss [10] -5.19% [at 95.3 µM] | activity change, negative = inhibition [11] 4.81% | Potency [12] 95.3 µM | Potency [13] 43 µM | Potency [14] 0.849 µM

— PubChem BioAssay (Tox21)
